Results are given in words; binding and its absence hold for the method and conditions named.
Molecular target: T1, Med25-ACID_(532-680), activator interaction domain (ACID) of mediator complex subunit 25 (Arabidopsis thaliana) (UniProt Q7XYY2)
T1 sequence: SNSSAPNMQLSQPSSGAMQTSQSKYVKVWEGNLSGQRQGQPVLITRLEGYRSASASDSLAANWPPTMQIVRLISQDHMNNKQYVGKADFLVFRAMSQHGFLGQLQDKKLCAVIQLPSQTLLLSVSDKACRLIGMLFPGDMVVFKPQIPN
Experiment: ITC; 25 °C; 50 mM HEPES pH 7.4, 100 mM NaCl, 0.5 mM TCEP; ~1:10 cell to syringe concentration ratio, cell around 15 µM for high-affinity fragments; one-set-of-sites model; which protein was in the cell is not stated; both purified

Chains of the proteins cited; added tags and fusions are not shown. Lines headed by an entry give the natural chain unless they say otherwise; changes in a name come on top. A line that says so, or that is headed by a name, gives the form on record, which may keep a tag or linker.
DREB2A_(195-276) Y242A (O82132, form named): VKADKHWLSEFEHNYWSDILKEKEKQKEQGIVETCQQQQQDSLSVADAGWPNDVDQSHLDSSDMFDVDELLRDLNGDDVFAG

binding: no binding
Substance: DREB2A_(195-276) Y242A (from UniProt O82132 195-276) (domain or fragment)

From publication PMC10796322, “Molecular switching in transcription through splicing and proline-isomerization regulates stress responses in plants” (Nature Communications, 2024)
